The other results are listed elsewhere or left out.
Columns and labels:
Test in all cases: log2 fold change, soluble protein after heating vs DMSO (PISA); higher = thermal stabilisation; K562 lysate, 10 uM; active = over 0.2 and 3.5 SD of the protein, either way, in both replicates (recomputed)
[1] = compound: CCCS(=O)(=O)Nc1ccc(F)c(C(=O)c2c[nH]c3ncc(-c4ccc(Cl)cc4)cc23)c1F [vemurafenib]
Procedure, shortened: (§1)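 Log-two fold change in thermal stability relative to solvent controls is reported from duplicates. For each sample, crude K562 extract from dounce-homogenised pellets in PBS pH 7.4 with 1 mM MgCl2, at 1 mg/mL protein, was treated with 10 μM compound for 30 min. Aliquots heated for 3 min across 48°C-58°C were pooled, brought to 0.5% NP-40 at 4°C and cleared at 21,000xg for 90 min. The supernatant was quantified by TMTpro 16plex LC-MS/MS with channel sums equalised.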

Amino acid sequences for entries named in this document (tags omitted). A change or cut given only in a name is not applied to a line headed by its entry.
UniProt P13224: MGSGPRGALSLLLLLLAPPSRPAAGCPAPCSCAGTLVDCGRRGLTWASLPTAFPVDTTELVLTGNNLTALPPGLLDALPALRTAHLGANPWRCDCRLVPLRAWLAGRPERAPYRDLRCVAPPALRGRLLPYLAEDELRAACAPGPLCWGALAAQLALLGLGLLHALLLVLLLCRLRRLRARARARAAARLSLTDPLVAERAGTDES
UniProt Q9Y2X7: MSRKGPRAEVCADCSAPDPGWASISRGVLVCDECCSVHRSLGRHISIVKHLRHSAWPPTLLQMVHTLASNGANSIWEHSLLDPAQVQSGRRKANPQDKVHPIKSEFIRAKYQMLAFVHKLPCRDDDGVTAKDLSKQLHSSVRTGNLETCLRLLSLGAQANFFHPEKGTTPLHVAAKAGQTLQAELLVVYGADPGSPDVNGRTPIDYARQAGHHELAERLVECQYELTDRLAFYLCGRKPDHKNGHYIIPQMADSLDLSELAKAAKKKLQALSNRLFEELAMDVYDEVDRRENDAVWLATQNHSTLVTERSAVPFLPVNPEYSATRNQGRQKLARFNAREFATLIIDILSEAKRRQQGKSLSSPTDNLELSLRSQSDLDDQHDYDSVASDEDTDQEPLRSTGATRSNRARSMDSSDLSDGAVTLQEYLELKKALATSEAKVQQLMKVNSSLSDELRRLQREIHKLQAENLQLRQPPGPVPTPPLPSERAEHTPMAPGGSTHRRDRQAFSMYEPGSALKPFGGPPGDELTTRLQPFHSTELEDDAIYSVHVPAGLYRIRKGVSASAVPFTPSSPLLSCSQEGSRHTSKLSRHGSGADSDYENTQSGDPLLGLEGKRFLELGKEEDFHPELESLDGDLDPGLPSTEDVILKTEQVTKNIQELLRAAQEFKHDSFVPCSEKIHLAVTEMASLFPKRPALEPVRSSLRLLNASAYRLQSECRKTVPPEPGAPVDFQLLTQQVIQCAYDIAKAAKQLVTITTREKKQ
UniProt O60547: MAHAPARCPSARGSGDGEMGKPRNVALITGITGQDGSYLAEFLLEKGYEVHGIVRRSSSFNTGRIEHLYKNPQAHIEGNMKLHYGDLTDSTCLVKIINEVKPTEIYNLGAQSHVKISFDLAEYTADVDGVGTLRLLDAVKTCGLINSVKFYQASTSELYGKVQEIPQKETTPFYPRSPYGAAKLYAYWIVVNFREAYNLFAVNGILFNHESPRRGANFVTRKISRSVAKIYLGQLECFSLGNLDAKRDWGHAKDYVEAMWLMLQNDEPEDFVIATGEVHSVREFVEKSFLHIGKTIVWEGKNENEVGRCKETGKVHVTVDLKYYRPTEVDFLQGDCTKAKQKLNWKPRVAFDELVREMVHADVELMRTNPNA
UniProt P16520, whole entry, looked up: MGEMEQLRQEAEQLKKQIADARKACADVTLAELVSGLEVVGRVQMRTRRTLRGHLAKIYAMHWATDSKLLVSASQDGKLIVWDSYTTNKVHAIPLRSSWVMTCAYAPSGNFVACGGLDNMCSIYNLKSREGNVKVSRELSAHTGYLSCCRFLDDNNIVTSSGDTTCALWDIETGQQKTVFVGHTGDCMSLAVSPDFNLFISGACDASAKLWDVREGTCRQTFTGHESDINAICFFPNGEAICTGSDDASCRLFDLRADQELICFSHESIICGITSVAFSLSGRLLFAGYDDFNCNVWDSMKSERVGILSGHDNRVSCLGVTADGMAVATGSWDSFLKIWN
UniProt Q8IW92: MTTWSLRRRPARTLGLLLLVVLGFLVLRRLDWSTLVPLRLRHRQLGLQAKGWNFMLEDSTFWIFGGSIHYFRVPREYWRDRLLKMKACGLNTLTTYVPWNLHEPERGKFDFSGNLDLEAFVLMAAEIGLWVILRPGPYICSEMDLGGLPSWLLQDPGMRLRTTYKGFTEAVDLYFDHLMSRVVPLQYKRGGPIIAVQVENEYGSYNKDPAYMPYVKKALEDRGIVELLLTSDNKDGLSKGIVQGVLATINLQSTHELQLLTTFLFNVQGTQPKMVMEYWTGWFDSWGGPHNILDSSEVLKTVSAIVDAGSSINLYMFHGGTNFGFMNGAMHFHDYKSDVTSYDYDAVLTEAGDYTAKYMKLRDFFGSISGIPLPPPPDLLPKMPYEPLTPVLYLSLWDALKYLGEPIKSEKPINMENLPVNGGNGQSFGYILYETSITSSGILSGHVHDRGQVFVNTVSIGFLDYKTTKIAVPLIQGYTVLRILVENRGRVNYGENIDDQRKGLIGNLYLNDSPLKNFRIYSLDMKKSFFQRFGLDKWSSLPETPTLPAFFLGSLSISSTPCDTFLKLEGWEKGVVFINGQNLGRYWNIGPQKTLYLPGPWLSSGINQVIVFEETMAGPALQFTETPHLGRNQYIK
UniProt P49915: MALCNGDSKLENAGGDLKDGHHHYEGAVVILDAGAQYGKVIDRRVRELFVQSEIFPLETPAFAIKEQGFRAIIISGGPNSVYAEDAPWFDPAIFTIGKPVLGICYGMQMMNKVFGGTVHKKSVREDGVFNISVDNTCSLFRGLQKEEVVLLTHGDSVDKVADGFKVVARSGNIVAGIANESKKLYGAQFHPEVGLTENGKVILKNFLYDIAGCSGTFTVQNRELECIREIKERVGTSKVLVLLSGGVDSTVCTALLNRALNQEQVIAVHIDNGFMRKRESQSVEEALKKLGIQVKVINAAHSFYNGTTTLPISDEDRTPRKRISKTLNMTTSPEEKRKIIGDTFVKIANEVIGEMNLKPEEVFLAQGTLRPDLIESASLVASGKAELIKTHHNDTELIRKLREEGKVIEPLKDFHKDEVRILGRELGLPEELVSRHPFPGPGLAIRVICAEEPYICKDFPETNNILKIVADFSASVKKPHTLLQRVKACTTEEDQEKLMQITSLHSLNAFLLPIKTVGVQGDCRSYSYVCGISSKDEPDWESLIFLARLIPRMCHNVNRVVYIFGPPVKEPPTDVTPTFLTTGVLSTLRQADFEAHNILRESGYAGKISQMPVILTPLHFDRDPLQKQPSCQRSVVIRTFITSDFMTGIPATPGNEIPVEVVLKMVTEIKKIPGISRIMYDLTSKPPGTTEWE
UniProt Q9BXV9: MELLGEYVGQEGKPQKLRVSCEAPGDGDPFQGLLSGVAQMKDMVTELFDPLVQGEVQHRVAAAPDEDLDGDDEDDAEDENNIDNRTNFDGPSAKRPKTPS
UniProt P38435: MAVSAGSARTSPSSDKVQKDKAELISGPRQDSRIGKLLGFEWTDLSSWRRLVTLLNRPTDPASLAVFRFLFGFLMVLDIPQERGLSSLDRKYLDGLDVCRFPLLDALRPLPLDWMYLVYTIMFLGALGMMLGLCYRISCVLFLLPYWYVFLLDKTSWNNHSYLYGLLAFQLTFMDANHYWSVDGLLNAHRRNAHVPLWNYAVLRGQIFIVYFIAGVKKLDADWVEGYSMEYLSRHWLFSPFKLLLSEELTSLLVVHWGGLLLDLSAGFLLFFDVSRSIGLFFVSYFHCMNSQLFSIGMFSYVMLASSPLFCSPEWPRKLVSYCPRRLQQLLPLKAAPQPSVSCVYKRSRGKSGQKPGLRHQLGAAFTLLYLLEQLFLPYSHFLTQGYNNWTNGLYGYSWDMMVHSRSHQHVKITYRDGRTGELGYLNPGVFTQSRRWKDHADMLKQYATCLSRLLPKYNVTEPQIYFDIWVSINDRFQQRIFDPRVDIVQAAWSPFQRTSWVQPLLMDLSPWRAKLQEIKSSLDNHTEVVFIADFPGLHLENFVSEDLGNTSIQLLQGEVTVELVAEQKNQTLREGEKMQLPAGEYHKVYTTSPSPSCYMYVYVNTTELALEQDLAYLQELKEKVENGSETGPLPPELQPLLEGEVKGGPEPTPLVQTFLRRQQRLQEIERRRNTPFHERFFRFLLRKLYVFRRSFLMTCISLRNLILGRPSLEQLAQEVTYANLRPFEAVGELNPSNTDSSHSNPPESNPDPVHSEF
UniProt P43304: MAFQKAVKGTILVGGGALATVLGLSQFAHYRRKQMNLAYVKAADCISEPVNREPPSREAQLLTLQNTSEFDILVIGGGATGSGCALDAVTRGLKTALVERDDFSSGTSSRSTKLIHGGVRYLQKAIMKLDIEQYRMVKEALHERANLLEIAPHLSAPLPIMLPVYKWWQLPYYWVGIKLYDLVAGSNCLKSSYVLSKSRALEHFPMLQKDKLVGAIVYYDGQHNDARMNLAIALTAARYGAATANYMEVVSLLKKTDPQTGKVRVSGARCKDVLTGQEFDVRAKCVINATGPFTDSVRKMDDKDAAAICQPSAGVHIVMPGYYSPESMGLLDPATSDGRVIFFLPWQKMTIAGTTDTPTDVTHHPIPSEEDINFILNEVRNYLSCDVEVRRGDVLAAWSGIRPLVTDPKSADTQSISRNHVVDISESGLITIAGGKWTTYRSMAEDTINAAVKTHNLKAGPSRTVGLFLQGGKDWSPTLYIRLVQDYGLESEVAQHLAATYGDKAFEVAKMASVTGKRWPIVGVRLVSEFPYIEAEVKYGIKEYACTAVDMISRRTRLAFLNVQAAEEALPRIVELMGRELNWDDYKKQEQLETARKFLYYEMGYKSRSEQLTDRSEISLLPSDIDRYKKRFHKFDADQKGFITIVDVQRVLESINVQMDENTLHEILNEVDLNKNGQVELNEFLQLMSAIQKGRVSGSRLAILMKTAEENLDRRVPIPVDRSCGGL
UniProt Q9Y3E0: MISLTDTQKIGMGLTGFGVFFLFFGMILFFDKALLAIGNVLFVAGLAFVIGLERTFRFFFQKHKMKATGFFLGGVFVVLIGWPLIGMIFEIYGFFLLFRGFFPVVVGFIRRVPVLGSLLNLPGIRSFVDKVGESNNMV
UniProt Q9BRX5: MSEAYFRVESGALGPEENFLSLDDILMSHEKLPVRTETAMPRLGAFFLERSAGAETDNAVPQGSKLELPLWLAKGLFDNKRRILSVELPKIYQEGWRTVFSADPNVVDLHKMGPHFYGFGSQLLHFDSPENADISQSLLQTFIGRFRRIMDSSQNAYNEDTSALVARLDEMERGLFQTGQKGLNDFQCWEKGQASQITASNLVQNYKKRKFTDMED
UniProt P17174: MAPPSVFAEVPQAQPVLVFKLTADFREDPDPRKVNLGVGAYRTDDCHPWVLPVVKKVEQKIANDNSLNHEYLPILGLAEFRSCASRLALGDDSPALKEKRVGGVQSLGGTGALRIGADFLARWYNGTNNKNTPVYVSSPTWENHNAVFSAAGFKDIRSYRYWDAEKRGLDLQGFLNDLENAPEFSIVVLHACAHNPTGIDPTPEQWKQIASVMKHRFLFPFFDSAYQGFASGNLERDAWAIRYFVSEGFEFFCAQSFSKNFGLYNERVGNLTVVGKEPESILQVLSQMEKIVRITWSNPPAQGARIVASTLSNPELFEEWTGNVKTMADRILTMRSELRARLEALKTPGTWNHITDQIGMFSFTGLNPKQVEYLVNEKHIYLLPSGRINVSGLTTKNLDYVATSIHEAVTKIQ
UniProt Q53GS7: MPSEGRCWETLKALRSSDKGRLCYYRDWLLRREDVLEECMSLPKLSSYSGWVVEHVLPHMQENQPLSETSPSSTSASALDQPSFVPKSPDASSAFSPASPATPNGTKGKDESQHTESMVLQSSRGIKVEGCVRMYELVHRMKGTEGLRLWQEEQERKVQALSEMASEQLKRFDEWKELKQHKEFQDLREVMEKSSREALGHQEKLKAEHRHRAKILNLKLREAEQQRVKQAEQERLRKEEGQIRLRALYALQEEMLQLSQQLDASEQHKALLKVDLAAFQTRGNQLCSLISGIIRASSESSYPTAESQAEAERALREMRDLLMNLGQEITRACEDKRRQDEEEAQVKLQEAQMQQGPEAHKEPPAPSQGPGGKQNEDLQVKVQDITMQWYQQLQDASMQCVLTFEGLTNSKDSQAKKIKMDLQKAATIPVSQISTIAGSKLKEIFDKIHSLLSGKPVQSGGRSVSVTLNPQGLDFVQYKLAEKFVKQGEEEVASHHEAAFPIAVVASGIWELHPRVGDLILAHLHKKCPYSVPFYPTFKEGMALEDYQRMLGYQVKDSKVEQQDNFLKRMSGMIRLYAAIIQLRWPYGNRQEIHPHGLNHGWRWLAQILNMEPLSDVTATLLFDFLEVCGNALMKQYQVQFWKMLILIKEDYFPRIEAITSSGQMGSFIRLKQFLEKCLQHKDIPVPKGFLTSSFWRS
UniProt O76003: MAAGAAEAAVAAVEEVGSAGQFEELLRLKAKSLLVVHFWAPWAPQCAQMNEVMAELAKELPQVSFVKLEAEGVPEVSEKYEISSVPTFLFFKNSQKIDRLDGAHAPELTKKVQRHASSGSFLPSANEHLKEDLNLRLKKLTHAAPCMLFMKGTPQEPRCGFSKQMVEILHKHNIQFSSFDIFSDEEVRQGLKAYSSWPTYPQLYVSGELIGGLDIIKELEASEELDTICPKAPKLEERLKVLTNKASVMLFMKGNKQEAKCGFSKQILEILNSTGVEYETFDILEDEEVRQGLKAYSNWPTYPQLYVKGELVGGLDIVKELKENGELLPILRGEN

[2] = compound: CCCS(=O)(=O)Nc1ccc(F)c(C(=O)c2c[nH]c3ncc(Cl)cc23)c1F
Procedure, shortened: as §1

[3] = compound: CCN(CCCOc1ccc2c(Nc3cc(CC(=O)Nc4cccc(F)c4)[nH]n3)ncnc2c1)CCOP(=O)(O)O [barasertib]
Procedure, shortened: as §1

[4] = compound: CC[C@@H]1C(=O)N(C)c2cnc(Nc3ccc(C(=O)NC4CCN(C)CC4)cc3OC)nc2N1C1CCCC1
Procedure, shortened: as §1

[5] = compound: CC[C@@H]1C(=O)N(C)c2cnc(Nc3ccc(C(=O)N[C@H]4CC[C@H](N5CCN(CC6CC6)CC5)CC4)cc3OC)nc2N1C(C)C [volasertib]
Procedure, shortened: as §1

[6] = compound: CCn1c(C(=O)N(C2CC2)C2CC2)cc2c3c(ncn3C)c(Nc3cc(C)n(C)n3)nc21
Procedure, shortened: as §1

[7] = compound: CCn1cc(-c2ccnc3[nH]c(-c4cccc(CN(C)C)c4)cc23)c(-c2ccc(NC(=O)N(C)C)cc2)n1
Procedure, shortened: as §1

[8] = compound: CN1CCC(CNc2ccc3ncc(-c4cccc(OC(F)(F)F)c4)n3n2)CC1
Procedure, shortened: as §1

[9] = compound: CN1CCN(CCOc2cc(OC3CCOCC3)c3c(Nc4c(Cl)ccc5c4OCO5)ncnc3c2)CC1 [saracatinib]
Procedure, shortened: as §1

[10] = compound: CN1CCN(c2nc(C3=C(c4c[nH]c5ccccc45)C(=O)NC3=O)c3ccccc3n2)CC1 [sotrastaurin]
Procedure, shortened: as §1

[11] = compound: CN1CC[C@H](c2c(O)cc(O)c3c(=O)cc(-c4ccccc4Cl)oc23)[C@H](O)C1 [alvocidib]
Procedure, shortened: as §1

[12] = compound: CN1CCc2c(c3ccccc3n2Cc2ccc(C(=O)NO)cc2)C1 [Tubastatin A]
Procedure, shortened: as §1

[13] = compound: CNC(=O)C1=CC=CC=C1NC2=NC(=NC=C2Cl)NC3=C(C=C(C=C3)N4CCOCC4)OC
Procedure, shortened: as §1

[14] = compound: CNC(=O)c1ccc(Nc2ncc(C(F)(F)F)c(NCc3nccnc3N(C)S(C)(=O)=O)n2)cc1 [defactinib]
Procedure, shortened: as §1

[15] = compound: CNc1nc(-c2ccc3c(N)n[nH]c3c2)cc(N2C[C@@H](C(=O)NC3CCCCC3)CC[C@H]2C)n1
Procedure, shortened: as §1

[16] = compound: COC(=O)N[C@@H](C)CNc1nccc(-c2cn(C(C)C)nc2-c2cc(Cl)cc(NS(C)(=O)=O)c2F)n1 [encorafenib]
Procedure, shortened: as §1

[17] = compound: COC(=O)[C@H](CCSC)NC(=O)C1=C(C=C(C=C1)NC[C@H](CS)N)C2=CC=CC=C2
Procedure, shortened: as §1

[18] = compound: COc1cc(Nc2ncc3c(n2)-c2ccc(Cl)cc2C(c2c(F)cccc2OC)=NC3)ccc1C(=O)O [alisertib]
Procedure, shortened: as §1

[19] = compound: COc1cc2nc(-c3cc(F)ccc3O)nc(N[C@@H]3CNC[C@H]3C(C)(C)O)c2cc1OC
Procedure, shortened: as §1

[20] = compound: COc1cc2ncnc(Nc3ccc(F)c(Cl)c3)c2cc1OCCCN1CCOCC1 [gefitinib]
Procedure, shortened: as §1

Measured: log2 fold change

GP1BB isoform 2 (UniProt P13224)
inactive: [1] -0.014 | [2] -0.009 | [3] 0.018 | [4] -0.045 | [5] -0.002 | [6] 0.01 | [7] -0.002 | [8] 0.023 | [9] -0.044 | [10] -0.026 | [11] 0 | [12] 0.006 | [13] -0.033 | [14] -0.016 | [15] -0.016 | [16] 0.018 | [17] -0.029 | [18] -0.019 | [19] -0.044 | [20] 0.012

GIT1 (UniProt Q9Y2X7)
inactive: [1] -0.073 | [2] 0.028 | [3] -0.008 | [4] -0.044 | [5] -0.043 | [6] -0.007 | [7] 0.132 | [8] 0.046 | [9] 0 | [10] 0.012 | [11] 0.015 | [12] -0.04 | [13] 0.022 | [14] 0.023 | [15] -0.084 | [16] 0.002 | [17] 0.026 | [18] 0.05 | [19] -0.011 | [20] -0.031

GMDS (UniProt O60547)
inactive: [1] 0.057 | [2] 0.012 | [3] 0.027 | [4] -0.088 | [5] -0.034 | [6] -0.023 | [7] 0.019 | [8] 0.042 | [9] -0.033 | [10] 0.019 | [11] 0.036 | [12] -0.057 | [13] -0.017 | [14] 0.042 | [15] 0.003 | [16] -0.059 | [17] 0.123 | [18] 0.016 | [19] 0.023 | [20] -0.012

GNB3 (UniProt P16520)
inactive: [1] 0.06 | [2] -0.084 | [3] 0.021 | [4] 0.017 | [5] 0.061 | [6] -0.055 | [7] -0.123 | [8] 0.046 | [9] -0.099 | [10] 0.028 | [11] -0.027 | [12] 0.147 | [13] -0.067 | [14] -0.032 | [15] 0.174 | [16] -0.042 | [17] -0.1 | [18] 0.018 | [19] 0.038 | [20] 0.155

GLB1L2 (UniProt Q8IW92)
inactive: [1] -0.003 | [2] 0.007 | [3] 0.084 | [4] 0.018 | [5] 0.055 | [6] 0.012 | [7] -0.093 | [8] 0.07 | [9] -0.028 | [10] 0.021 | [11] -0.087 | [12] 0.069 | [13] 0.088 | [14] -0.014 | [15] 0.151 | [16] -0.016 | [17] -0.085 | [18] 0.033 | [19] -0.008 | [20] -0.079

GMPS (UniProt P49915)
inactive: [1] -0.006 | [2] -0.011 | [3] -0.008 | [4] -0.05 | [5] -0.046 | [6] -0.011 | [7] 0.128 | [8] -0.047 | [9] 0.014 | [10] -0.005 | [11] 0.04 | [12] -0.065 | [13] -0.009 | [14] 0.014 | [15] -0.025 | [16] -0.022 | [17] 0.025 | [18] 0.005 | [19] -0.003 | [20] -0.026

GON7 (UniProt Q9BXV9)
inactive: [1] 0.097 | [2] -0.115 | [3] 0.196 | [4] -0.056 | [5] 0.064 | [6] 0.024 | [7] -0.029 | [8] -0.052 | [9] 0.002 | [10] -0.062 | [11] 0.081 | [12] 0.105 | [13] 0.082 | [14] 0.003 | [15] 0.065 | [16] -0.082 | [17] -0.112 | [18] 0.028 | [19] -0.051 | [20] -0.103

GGCX (UniProt P38435)
inactive: [1] -0.151 | [2] 0 | [3] 0.099 | [4] -0.014 | [5] -0.044 | [6] -0.146 | [7] -0.036 | [8] -0.145 | [9] 0.011 | [10] 0.059 | [11] 0.054 | [12] -0.097 | [13] -0.033 | [14] 0.228 | [15] -0.014 | [16] 0.074 | [17] -0.012 | [18] 0.006 | [19] 0.018 | [20] 0.036

GPD2 (UniProt P43304)
inactive: [1] 0.028 | [2] -0.002 | [3] -0.001 | [4] 0.002 | [5] 0.024 | [6] 0.03 | [7] 0.003 | [8] -0.001 | [9] 0.012 | [10] 0.005 | [11] -0.013 | [12] 0.013 | [13] 0.024 | [14] 0.04 | [15] 0 | [16] 0.006 | [17] -0.028 | [18] -0.018 | [19] 0 | [20] 0.037

GPS1 (UniProt A8K070)
inactive: [1] -0.1 | [2] 0.006 | [3] 0.042 | [4] 0.004 | [5] -0.026 | [6] 0.015 | [7] 0.079 | [8] 0.008 | [9] 0.034 | [10] -0.004 | [11] 0.007 | [12] -0.074 | [13] 0.092 | [14] 0.064 | [15] -0.019 | [16] -0.026 | [17] 0.03 | [18] -0.001 | [19] -0.009 | [20] -0.098

GOLT1B (UniProt Q9Y3E0)
inactive: [1] 0.128 | [2] 0.031 | [3] 0.031 | [4] -0.037 | [5] 0.029 | [6] 0.047 | [7] 0.049 | [8] -0.023 | [9] -0.008 | [10] 0.006 | [11] -0.027 | [12] 0.033 | [13] 0.012 | [14] -0.027 | [15] 0.002 | [16] 0.004 | [17] -0.027 | [18] -0.068 | [19] 0.042 | [20] -0.076

GINS3 (UniProt Q9BRX5)
inactive: [1] 0.002 | [2] -0.004 | [3] 0.15 | [4] -0.05 | [5] 0.011 | [6] 0.027 | [7] -0.017 | [8] 0.002 | [9] 0 | [10] -0.004 | [11] 0.032 | [12] -0.04 | [13] 0.018 | [14] 0.002 | [15] -0.016 | [16] -0.025 | [17] -0.102 | [18] 0.018 | [19] -0.042 | [20] -0.016

GOT1 (UniProt P17174)
inactive: [1] -0.004 | [2] -0.023 | [3] -0.032 | [4] 0.008 | [5] 0.022 | [6] 0.017 | [7] -0.038 | [8] 0.051 | [9] -0.011 | [10] -0.023 | [11] 0.004 | [12] 0.051 | [13] -0.011 | [14] -0.02 | [15] 0.01 | [16] -0.021 | [17] -0.003 | [18] 0.005 | [19] 0.005 | [20] -0.005

GLE1 (UniProt Q53GS7)
inactive: [1] -0.035 | [2] -0.199 | [3] 0.107 | [4] -0.002 | [5] 0.048 | [6] 0.153 | [7] 0.155 | [8] -0.365 | [9] 0.019 | [10] 0.083 | [11] 0.217 | [12] 0.166 | [13] 0.048 | [14] 0.098 | [15] 0.067 | [16] 0.01 | [17] 0.098 | [18] -0.018 | [19] 0.116 | [20] -0.081

2 successive entries already listed, for reference:
GINS3 (UniProt Q9BRX5)
inactive: [1] 0.002 | [2] -0.004 | [3] 0.15 | [4] -0.05 | [5] 0.011 | [6] 0.027 | [7] -0.017 | [8] 0.002 | [9] 0 | [10] -0.004 | [11] 0.032 | [12] -0.04 | [13] 0.018 | [14] 0.002 | [15] -0.016 | [16] -0.025 | [17] -0.102 | [18] 0.018 | [19] -0.042 | [20] -0.016

GOT1 (UniProt P17174)
inactive: [1] -0.004 | [2] -0.023 | [3] -0.032 | [4] 0.008 | [5] 0.022 | [6] 0.017 | [7] -0.038 | [8] 0.051 | [9] -0.011 | [10] -0.023 | [11] 0.004 | [12] 0.051 | [13] -0.011 | [14] -0.02 | [15] 0.01 | [16] -0.021 | [17] -0.003 | [18] 0.005 | [19] 0.005 | [20] -0.005

The listing continues.

GNL2 (UniProt Q13823)
inactive: [1] -0.017 | [2] 0.027 | [3] 0.042 | [4] 0.005 | [5] 0.011 | [6] 0.003 | [7] -0.048 | [8] -0.005 | [9] 0.008 | [10] -0.016 | [11] 0.013 | [12] -0.035 | [13] 0.06 | [14] -0.001 | [15] -0.005 | [16] 0.024 | [17] 0.096 | [18] 0.009 | [19] 0.008 | [20] -0.043

GLRX3 (UniProt O76003)
inactive: [1] -0.025 | [2] -0.007 | [3] -0.008 | [4] 0.043 | [5] 0.025 | [6] -0.039 | [7] 0.02 | [8] 0.015 | [9] -0.026 | [10] -0.035 | [11] 0.013 | [12] -0.011 | [13] 0.01 | [14] -0.039 | [15] 0.032 | [16] -0.029 | [17] -0.038 | [18] 0.016 | [19] 0.01 | [20] -0.009

From the supplement of paper PMC10849652
